# PubChem BioAssay AID1259425 | University of Nebraska Medical Center | 2018
# Test: 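Seek colon cancer weak points whose silencing resembles KSR1 loss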 (primary screen)
# Cell system: HCT116 human colon cancer cells
# Knock-down reagent: siRNA pool against human genes, 50 nM siRNA
# Read-out: 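mRNA of six signature genes measured together by branched-DNA assay after 50 nM siRNA pool, blank removed, divided by geometric mean of two housekeeping genes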
# Scale: BNIP3L mRNA: higher = more BNIP3L transcript after knockdown; NDRG1 mRNA: higher = more NDRG1 transcript after knockdown
# The whole screen tested about 14,000 reagents; below is a random part of them. Further read-outs or replicates are left out here. Not given: the time to read-out.
Target gene,"BNIP3L mRNA, set 1","NDRG1 mRNA, set 1"
UMPS (uridine monophosphate synthetase),0.0915,0.3
SLC35D2,0.094,0.228
EBPL (EBP like),0.121,0.162
GLP1R (glucagon like peptide 1 receptor),0.136,0.115
BRD4 (bromodomain containing 4),0.166,0.169
SOD1 (superoxide dismutase 1),0.206,0.27
ZNF654 (zinc finger protein 654),0.0892,0.168
MED7 (mediator complex subunit 7),0.111,1.11
SCD5 (stearoyl-CoA desaturase 5),0.128,0.23
MAP2K3 (mitogen-activated protein kinase kinase 3),0.113,0.417
CNGA3 (cyclic nucleotide gated channel subunit alpha 3),0.0758,0.0547
TMEM14C (transmembrane protein 14C),0.108,0.236
OR1A1 (olfactory receptor family 1 subfamily A member 1),0.265,0.639
NYX (nyctalopin),0.0568,0.217
"RABL2A (RAB, member of RAS oncogene family like 2A)",0.136,0.0904
IL21 (interleukin 21),0.123,0.0769
LDLR (low density lipoprotein receptor),0.0806,0.131
MRTFB (myocardin related transcription factor B),0.0888,0.0881
LINC00474 (long independently transcribed non-coding RNA 474),0.282,0.566
CRCT1 (cysteine rich C-terminal 1),0.177,0.324
ACTR2 (actin related protein 2),0.14,0.249
CHCHD5 (coiled-coil-helix-coiled-coil-helix domain containing 5),0.26,0.192
TRAF5 (TNF receptor associated factor 5),0.119,0.122
OMP (olfactory marker protein),0.17,1.31
KRTAP4-4 (keratin associated protein 4-4),0.123,0.127
ARL3 (ARF like GTPase 3),0.139,0.215
"CENPBD1P (CENPB DNA-binding domain containing 1, pseudogene)",0.0909,0.115
EPHA3 (EPH receptor A3),0.183,0.0535
STRC (stereocilin),0.0853,0.105
DNAJC13 (DnaJ heat shock protein family (Hsp40) member C13),0.359,0.546
DTWD1 (DTW motif tRNA-uridine aminocarboxypropyltransferase 1),0.126,0.349
SAR1B (secretion associated Ras related GTPase 1B),0.0968,0.383
CCNJL (cyclin J like),0.34,1.27
DDX24 (DEAD-box helicase 24),0.441,0.707
SCML1 (Scm polycomb group protein like 1),0.118,0.0535
TMA7 (translation machinery associated 7 homolog),0.195,0.225
SYCP2 (synaptonemal complex protein 2),0.155,0.258
PAEP (progestagen associated endometrial protein),0.139,0.338
DAZ1 (deleted in azoospermia 1),0.135,0.113
TNFAIP6 (TNF alpha induced protein 6),0.142,0.158
ASH1L (ASH1 like histone lysine methyltransferase),0.122,0.454
DKKL1 (dickkopf like acrosomal protein 1),0.0807,0.251
EVA1B (eva-1 homolog B),0.128,0.169
"PMS1 (PMS1 homolog 1, mismatch repair system component)",0.0461,0.0414
SALL4 (spalt like transcription factor 4),0.18,0.433
TAF5 (TATA-box binding protein associated factor 5),0.143,0.204
ERMN (ermin),0.233,0.172
PODXL2 (podocalyxin like 2),0.14,0.275
TAAR5 (trace amine associated receptor 5),0.143,0.496
SQLE (squalene epoxidase),0.0783,0.111

Records listed so far whose target name starts with S or s (9):
Target gene,"BNIP3L mRNA, set 1","NDRG1 mRNA, set 1"
SLC35D2,0.094,0.228
SOD1 (superoxide dismutase 1),0.206,0.27
SCD5 (stearoyl-CoA desaturase 5),0.128,0.23
STRC (stereocilin),0.0853,0.105
SAR1B (secretion associated Ras related GTPase 1B),0.0968,0.383
SCML1 (Scm polycomb group protein like 1),0.118,0.0535
SYCP2 (synaptonemal complex protein 2),0.155,0.258
SALL4 (spalt like transcription factor 4),0.18,0.433
SQLE (squalene epoxidase),0.0783,0.111
